Consider one compound from ChEMBL document CHEMBL1155017, “The use of natural product scaffolds as leads in the search for trypanothione reductase inhibitors” (Bioorg Med Chem, 2008).

By UniProt entry, the sequences of proteins in these tests, tags left out. Where a name states a change or a piece, a line headed by the entry shows the natural chain unless it says otherwise.
UniProt P28593: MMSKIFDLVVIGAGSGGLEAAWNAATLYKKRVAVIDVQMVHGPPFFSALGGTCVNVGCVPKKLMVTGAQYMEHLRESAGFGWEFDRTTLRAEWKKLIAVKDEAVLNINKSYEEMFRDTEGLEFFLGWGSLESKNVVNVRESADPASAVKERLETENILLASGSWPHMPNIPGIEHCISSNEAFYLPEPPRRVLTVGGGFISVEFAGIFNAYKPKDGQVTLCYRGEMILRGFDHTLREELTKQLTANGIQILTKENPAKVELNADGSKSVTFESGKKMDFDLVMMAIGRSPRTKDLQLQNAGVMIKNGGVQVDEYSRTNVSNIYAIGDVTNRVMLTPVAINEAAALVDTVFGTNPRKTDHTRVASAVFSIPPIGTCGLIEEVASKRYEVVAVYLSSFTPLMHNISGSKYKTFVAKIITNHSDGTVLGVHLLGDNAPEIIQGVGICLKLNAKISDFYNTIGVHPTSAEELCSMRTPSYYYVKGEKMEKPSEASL

The structures appear in SMILES notation.

This test addresses Trypanothione reductase (Trypanosoma cruzi, UniProt P28593). Nature of the test: Inhibition of Trypanosoma cruzi recombinant trypanothione reductase.

Broadly, the Ki is a dissociation constant, usually derived from enzyme kinetics or from competition with a known ligand.

With `CN(C)CCCN1c2ccccc2CCc2ccc(Cl)cc21` [CLOMIPRAMINE], the Ki was found to be 7 µM.
